Test results reported in US7498300B2 (The Salk Institute for Biological Studies, priority 2001, dated 2009).

Experiment: general procedure: Boc solid-phase peptide synthesis; MBHA resin (about 0.28 mequiv/g); BOP (cyclization)
Settings: whole synthesis, capillary zone electrophoresis (CZE), scale of the general procedure about 3 grams of resin

## (cyclo 31-34)[Ac-Pro^4, D-Phe^12, Nle^21,38, Glu^31, Lys^34]-r/hCRF(4-41)
  final purity (method not given): about 98%
